The text below walks through data of publication PMC12499419.

The target in assay [1] is T1, CHPT-HA (zebrafish CHPT) (zebrafish) (UniProt Q7ZW02).
T1 sequence: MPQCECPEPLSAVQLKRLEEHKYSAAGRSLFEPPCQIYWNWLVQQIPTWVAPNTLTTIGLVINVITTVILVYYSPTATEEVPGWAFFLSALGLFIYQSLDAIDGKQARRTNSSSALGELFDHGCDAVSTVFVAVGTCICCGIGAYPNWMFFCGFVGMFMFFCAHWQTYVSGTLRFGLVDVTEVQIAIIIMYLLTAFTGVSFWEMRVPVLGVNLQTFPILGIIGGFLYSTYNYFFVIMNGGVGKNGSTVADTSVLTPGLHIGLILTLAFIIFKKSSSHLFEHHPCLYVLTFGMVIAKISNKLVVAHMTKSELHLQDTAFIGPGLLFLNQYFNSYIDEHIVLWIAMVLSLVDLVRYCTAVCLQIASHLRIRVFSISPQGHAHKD
Briefly: co-IP; Seipin-Flag, CHPT-HA and CCTα-GFP overexpressed together in HEK293T cells; immunoprecipitation with anti-Flag or anti-HA antibodies; immunoblot.

The target of assay [2] is Seipin-Flag (zebrafish Seipin) (zebrafish). Briefly: co-IP; Seipin-Flag and an HA-tagged partner co-transfected in HEK293T cells, harvested 36 h after transfection; lysate supernatant incubated with anti-HA agarose, anti-FLAG M2 affinity gel or IgG beads; eluted with HA or Flag peptides; immunoblot; in some panels cells treated with OA, BSA and PC (PC promoted the Seipin-Plin2 interaction). A general note: A western blot detects proteins with antibodies after separation by electrophoresis.

The target is the same in assay [3]. Briefly: co-IP; Seipin-Flag, CHPT-HA and CCTα-GFP overexpressed together in HEK293T cells; immunoprecipitation with anti-Flag or anti-HA antibodies; immunoblot.
The target of assay [4] is Seipin-VN (zebrafish Seipin in the VN173 vector) (zebrafish). Briefly: split reporter; BiFC: Seipin-VN and a VC-fused partner (with Seipin-RFP) transfected in HEK293T cells; fixed after 36 h, confocal microscopy; cells incubated with BSA or OA.

These are yes or no findings as the source states them, for the method shown. In cells and extracts the contact can be indirect. A result given as binding can be weak or reduced; the word gives no strength. For some assays here: Tags and fused reporters may be left off the sequences shown.

Take Seipin-Flag (zebrafish Seipin): the binding entry in assay [1] is recorded as “binds”.
CCTα-GFP (zebrafish CCTα) (enzyme): the binding result in assay [1] is recorded as “binds”.

B1: CHPT-HA (zebrafish CHPT) (enzyme, UniProt Q7ZW02 1-382)
chain: T1 sequence
As for B1, the binding entry in assay [2] and in assay [3] was “binds” throughout.

B2: CHPT-VC (zebrafish CHPT in the VC155 vector) (enzyme, UniProt Q7ZW02 1-382)
chain: T1 sequence
On to B2, for which, in assay [4], the binding result was “binds”.
